The supplement of paper PMC12067093, “Discovery and optimisation of a covalent ligand for TRIM25 and its application to targeted protein ubiquitination” (Chemical Science, 2025)
This is one part of the list.

Protein sequences, listed by entry. Tags and fused reporters are not part of them. Lines headed by an entry give the natural chain unless they say otherwise; changes in a name come on top.
UniProt Q9UNE7: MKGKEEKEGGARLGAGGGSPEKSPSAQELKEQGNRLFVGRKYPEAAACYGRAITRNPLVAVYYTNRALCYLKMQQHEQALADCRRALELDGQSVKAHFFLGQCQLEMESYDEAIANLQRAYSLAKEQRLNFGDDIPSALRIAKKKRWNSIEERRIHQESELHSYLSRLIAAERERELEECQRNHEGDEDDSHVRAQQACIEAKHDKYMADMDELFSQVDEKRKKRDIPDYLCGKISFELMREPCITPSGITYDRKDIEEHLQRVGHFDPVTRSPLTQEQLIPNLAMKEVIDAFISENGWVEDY
UniProt O00186: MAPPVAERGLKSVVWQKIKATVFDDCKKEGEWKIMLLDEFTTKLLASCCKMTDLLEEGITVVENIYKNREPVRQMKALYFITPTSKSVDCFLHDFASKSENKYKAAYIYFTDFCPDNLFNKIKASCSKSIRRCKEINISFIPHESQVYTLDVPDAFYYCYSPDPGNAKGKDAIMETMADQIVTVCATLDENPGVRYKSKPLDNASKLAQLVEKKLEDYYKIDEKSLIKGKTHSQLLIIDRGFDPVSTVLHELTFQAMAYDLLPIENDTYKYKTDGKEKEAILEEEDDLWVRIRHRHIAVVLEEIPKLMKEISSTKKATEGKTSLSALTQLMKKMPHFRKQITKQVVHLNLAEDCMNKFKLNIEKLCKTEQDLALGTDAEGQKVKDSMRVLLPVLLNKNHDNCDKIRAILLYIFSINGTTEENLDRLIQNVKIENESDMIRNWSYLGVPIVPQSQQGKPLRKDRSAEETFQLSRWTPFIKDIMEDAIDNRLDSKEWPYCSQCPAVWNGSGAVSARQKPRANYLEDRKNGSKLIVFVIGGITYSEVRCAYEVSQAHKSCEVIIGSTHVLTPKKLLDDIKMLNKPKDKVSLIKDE
UniProt Q96SI9: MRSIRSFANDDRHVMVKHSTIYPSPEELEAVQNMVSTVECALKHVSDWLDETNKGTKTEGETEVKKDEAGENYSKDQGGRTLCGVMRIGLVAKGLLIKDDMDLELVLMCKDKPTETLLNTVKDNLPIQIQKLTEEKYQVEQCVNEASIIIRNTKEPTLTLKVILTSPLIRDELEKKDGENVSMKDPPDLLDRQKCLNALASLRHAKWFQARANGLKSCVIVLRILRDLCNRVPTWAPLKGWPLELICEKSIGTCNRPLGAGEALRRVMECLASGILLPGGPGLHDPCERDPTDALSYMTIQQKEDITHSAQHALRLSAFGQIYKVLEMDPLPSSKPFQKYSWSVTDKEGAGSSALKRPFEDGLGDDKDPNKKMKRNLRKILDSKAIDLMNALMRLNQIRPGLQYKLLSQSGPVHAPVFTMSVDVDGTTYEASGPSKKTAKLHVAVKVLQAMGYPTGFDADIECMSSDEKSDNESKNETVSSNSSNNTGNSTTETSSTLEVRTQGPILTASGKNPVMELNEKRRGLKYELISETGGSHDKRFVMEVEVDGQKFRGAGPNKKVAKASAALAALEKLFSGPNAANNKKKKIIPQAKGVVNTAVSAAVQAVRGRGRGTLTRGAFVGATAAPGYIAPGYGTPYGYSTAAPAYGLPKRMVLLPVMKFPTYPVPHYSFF
UniProt O94768: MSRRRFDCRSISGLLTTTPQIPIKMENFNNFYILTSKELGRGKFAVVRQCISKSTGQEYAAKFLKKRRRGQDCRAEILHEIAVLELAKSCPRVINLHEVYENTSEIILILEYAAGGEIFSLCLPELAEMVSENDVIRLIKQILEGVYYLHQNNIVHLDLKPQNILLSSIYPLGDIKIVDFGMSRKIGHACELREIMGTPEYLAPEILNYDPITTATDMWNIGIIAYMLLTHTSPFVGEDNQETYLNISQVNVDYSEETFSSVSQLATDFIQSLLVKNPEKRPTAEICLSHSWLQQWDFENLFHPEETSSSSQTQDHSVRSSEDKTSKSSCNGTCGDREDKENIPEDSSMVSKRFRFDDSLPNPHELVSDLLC
UniProt O95793: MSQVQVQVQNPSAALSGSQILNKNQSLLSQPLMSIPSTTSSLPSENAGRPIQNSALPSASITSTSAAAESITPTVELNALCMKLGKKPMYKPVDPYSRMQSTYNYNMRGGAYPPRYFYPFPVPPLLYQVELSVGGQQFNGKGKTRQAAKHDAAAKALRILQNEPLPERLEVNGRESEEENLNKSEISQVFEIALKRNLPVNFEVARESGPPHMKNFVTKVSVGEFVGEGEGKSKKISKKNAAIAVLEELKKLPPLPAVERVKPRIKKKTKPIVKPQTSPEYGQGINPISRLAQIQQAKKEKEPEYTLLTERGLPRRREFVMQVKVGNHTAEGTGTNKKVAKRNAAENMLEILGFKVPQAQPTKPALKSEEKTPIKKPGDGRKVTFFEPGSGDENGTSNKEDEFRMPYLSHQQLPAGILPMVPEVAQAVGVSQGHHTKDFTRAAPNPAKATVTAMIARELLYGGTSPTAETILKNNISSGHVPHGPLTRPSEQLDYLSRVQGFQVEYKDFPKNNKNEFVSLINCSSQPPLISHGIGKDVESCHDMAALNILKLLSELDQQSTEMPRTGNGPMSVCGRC
UniProt P31948, whole entry, looked up: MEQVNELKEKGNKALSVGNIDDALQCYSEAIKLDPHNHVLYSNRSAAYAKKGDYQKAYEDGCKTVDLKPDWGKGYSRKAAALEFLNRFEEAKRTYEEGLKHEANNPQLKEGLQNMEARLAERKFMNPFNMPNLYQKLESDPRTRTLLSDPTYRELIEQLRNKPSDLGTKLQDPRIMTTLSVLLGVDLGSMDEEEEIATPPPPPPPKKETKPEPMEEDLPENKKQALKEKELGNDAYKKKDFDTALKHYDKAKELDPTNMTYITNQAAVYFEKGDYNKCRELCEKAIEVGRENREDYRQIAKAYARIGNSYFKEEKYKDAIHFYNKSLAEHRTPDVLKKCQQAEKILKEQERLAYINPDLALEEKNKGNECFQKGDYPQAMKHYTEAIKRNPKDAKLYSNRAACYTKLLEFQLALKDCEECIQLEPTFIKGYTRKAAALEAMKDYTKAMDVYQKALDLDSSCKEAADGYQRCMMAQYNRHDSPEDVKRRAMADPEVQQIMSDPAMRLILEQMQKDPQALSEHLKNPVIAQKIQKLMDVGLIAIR
UniProt Q15831: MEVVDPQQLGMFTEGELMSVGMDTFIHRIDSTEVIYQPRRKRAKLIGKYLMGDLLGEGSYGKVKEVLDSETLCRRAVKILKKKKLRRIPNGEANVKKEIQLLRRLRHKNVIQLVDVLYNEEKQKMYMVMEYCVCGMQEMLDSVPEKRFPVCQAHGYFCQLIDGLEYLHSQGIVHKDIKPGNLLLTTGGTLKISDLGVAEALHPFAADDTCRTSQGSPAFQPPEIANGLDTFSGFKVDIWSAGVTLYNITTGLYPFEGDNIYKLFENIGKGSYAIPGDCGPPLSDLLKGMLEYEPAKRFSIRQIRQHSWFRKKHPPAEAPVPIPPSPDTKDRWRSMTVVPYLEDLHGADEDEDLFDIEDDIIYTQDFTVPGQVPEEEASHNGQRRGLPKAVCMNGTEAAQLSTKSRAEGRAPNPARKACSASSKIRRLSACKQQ
UniProt Q9BXP5: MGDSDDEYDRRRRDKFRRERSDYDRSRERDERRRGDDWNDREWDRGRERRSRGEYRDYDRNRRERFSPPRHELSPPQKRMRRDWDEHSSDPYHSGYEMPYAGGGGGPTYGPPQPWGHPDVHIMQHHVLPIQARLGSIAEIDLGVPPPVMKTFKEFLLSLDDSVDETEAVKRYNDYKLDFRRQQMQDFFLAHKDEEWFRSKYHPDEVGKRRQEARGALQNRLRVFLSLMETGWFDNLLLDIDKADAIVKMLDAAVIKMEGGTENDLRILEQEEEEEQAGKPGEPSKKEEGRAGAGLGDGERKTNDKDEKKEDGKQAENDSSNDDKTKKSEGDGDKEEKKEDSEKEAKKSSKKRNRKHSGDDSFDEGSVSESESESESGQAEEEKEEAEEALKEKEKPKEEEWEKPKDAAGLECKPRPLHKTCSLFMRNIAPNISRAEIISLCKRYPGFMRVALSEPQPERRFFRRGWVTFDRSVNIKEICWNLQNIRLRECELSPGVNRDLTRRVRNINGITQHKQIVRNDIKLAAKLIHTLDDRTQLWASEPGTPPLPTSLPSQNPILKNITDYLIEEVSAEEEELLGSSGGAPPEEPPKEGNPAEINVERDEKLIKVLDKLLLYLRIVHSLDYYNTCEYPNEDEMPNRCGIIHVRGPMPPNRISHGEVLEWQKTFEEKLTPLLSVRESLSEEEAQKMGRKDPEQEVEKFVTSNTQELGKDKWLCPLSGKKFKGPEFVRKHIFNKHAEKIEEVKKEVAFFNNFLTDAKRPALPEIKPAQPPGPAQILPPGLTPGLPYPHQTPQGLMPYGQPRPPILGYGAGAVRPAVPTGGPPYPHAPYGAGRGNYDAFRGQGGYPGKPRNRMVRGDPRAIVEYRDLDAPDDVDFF
UniProt Q15833: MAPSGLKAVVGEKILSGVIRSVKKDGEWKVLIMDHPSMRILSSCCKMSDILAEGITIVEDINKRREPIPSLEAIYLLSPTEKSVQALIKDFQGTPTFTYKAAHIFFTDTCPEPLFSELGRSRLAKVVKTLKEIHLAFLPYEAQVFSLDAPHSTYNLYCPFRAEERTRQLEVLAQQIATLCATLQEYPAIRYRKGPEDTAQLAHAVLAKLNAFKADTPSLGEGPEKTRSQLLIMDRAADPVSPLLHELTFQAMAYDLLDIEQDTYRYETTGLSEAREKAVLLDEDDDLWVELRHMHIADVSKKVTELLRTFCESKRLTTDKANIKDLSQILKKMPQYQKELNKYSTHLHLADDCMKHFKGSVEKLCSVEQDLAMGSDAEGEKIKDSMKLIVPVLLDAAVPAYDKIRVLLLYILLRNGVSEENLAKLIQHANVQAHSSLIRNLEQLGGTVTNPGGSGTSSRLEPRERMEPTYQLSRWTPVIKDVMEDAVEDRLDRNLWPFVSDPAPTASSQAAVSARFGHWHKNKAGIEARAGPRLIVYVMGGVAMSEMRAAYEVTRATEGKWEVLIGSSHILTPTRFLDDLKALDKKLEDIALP
UniProt Q5VSL9: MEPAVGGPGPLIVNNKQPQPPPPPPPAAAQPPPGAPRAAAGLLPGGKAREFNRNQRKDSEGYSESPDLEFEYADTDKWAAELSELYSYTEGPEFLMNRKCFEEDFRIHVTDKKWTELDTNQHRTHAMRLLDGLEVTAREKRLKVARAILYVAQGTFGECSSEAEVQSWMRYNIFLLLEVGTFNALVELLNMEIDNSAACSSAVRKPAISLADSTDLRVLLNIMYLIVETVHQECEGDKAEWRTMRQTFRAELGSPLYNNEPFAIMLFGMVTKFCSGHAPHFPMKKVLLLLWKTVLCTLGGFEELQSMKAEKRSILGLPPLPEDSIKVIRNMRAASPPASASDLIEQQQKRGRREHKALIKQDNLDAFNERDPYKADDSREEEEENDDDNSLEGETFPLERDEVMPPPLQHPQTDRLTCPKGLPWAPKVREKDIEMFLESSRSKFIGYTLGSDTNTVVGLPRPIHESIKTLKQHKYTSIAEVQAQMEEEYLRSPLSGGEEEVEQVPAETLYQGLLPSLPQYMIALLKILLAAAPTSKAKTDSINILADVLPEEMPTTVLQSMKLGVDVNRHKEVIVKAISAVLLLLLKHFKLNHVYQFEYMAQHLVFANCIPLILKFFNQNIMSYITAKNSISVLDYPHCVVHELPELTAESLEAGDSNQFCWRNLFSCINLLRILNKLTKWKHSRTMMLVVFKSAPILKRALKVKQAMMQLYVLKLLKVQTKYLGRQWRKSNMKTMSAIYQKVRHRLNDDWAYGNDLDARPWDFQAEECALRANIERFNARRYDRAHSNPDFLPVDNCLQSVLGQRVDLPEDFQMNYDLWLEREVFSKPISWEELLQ
UniProt Q08945, whole entry, looked up: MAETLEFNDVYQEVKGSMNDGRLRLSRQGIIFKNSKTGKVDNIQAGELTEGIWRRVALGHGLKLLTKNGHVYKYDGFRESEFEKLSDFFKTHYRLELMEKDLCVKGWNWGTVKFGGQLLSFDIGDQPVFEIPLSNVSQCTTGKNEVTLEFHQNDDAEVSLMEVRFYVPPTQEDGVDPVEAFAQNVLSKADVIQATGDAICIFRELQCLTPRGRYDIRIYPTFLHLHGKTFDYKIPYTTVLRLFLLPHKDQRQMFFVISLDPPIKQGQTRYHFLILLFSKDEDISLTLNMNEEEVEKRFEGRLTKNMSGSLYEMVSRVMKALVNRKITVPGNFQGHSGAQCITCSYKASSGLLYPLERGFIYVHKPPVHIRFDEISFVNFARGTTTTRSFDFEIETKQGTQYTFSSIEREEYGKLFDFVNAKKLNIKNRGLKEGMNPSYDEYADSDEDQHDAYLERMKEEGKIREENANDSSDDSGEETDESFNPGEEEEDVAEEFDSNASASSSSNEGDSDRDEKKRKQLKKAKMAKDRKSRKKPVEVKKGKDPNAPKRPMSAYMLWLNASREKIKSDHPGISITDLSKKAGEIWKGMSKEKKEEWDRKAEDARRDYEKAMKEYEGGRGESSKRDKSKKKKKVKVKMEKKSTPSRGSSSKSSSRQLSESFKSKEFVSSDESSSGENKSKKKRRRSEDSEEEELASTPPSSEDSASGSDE

Compound: CC1Cc2ccccc2N1C(=O)C1CCCN(C1)C(=O)CCl (mixture of isomers) [TRIM25 ligand 11 (diastereomer mixture)]
Assay: probe-labelled cysteine peptide fold change vs DMSO (competition) (log2 fold change); higher = less target engagement (more negative = stronger competition)
Details: THP-1, incubation time: 4 h
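Further: competitive chemoproteomic profiling in live THP-1 cells with an iodoacetamide desthiobiotin (IA-DTB) probe, comparing probe-labelled peptide intensities in compound-treated cells against DMSO-treated controls.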

Target	probe-labelled cysteine peptide fold change (10 µM)	probe-labelled cysteine peptide fold change (50 µM)
SSU72_Q9NP77_111_DLFDLILTCEER (UniProt Q9NP77)	-0.0988	0.091
STX12_Q86Y82_29_DFSSIIQTCSGNIQR (UniProt Q86Y82)	0.0879	-0.025
SRSF10_O75494-5_149_KPNCSWNTQYSSAYYTSR (UniProt O75494)	0.191	0.0171
STAT6_P42226_272_TLVTSCFLVEK (UniProt P42226)	-0.00153	0.102
SSBP4_Q9BWG4_81_EACEHSGEAK (UniProt Q9BWG4)	-0.257	-0.344
STRN4_Q9NRL3_17_AAAAVAAAASSCRPLGSGAGPGPTGAAPVSAPAPGPGPAGK (UniProt Q9NRL3)	-0.0062	-0.0897
SRPK2_P78362_680_ASAGECLR (UniProt P78362)	0.0685	0.0217
SURF2_Q15527_29_CILTGHELPCR (UniProt Q15527)	0.0486	0.163
STAG2_Q8N3U4_176_SSFCEFIGVLVR (UniProt Q8N3U4)	0.251	0.139
STUB1_Q9UNE7_83_MQQHEQALADCR (UniProt Q9UNE7)	0.0976	0.127
SUV39H1_O43463_30_LSCPALGISK (UniProt O43463)	-0.0164	0.0241
STIM2_Q9P246_426_ALSELTTCLR (UniProt Q9P246)	-0.0606	0.143
STXBP3_O00186_90_SVDCFLHDFASK (UniProt O00186)	0.023	-0.048
SUPT6H_Q7KZ85_1169_LIICNVTGIAHR (UniProt Q7KZ85)	0.103	0.209
SRSF7_Q16629_119_GHYAYDCHR (UniProt Q16629)	0.11	0.158
SRPK2_P78362_320_IIEENITSAAPSNDQDGEYCPEVK (UniProt P78362)	0.18	-0.374
STRBP_Q96SI9_254_SIGTCNRPLGAGEALR (UniProt Q96SI9)	0.0721	0.0402
STAT2_P52630_529_LFGQNCR (UniProt P52630)	0.088	-0.00846
SSSCA1_O60232_125_EHQLASASELPLGSRPAPQPPVPRPEHCEGAAAGLK (UniProt O60232)	-0.117	-0.301
STX7_O15400_28_ITQCSVEIQR (UniProt O15400)	-0.0692	0.0818
STAT3_P40763_426_ANCDASLIVTEELHLITFETEVYHQGLK (UniProt P40763)	0.248	0.0878
STAM2_O75886_85_IFHLEVCSR (UniProt O75886)	0.0446	0.173

Target	probe-labelled cysteine peptide fold change (10 µM)	probe-labelled cysteine peptide fold change (50 µM)
STK17B_O94768_190_KIGHACELR (UniProt O94768)	0.0638	0.092
STAU1_O95793_541_DVESCHDMAALNILK (UniProt O95793)	-0.0554	-0.471
SUGP2_Q8IX01_656_GADQKPTSADCAVR (UniProt Q8IX01)	-0.0616	-0.141
STIP1_P31948_417+420_DCEECIQLEPTFIK (UniProt P31948)	0.0585	0.489
STRN4_Q9NRL3_733_KHEEAIHAVACHPSK (UniProt Q9NRL3)	0.0308	0.0102
SUPT6H_Q7KZ85_990_AIAHPYSQALIQYVCGLGPR (UniProt Q7KZ85)	-0.039	0.548
SUPT6H_Q7KZ85_1132_AELSCR (UniProt Q7KZ85)	0.043	0.0464
STAT1_P42224_108_NLQDNFQEDPIQMSMIIYSCLK (UniProt P42224)	-0.0932	0.0436
STXBP5_Q5T5C0_800_EAISALHFCETFTR (UniProt Q5T5C0)	-0.0919	0.0698
SUZ12_Q15022_531_TPITHILVCRPK (UniProt Q15022)	-0.255	-0.241
STRBP_Q96SI9_142_YQVEQCVNEASIIIR (UniProt Q96SI9)	-0.0465	-0.324
STAU1_O95793_523_NEFVSLINCSSQPPLISHGIGK (UniProt O95793)	-0.109	-0.236
STK11_Q15831_210_ISDLGVAEALHPFAADDTCR (UniProt Q15831)	0.159	0.107
STK26_Q9P289_392_SIAVAEAACPGITDK (UniProt Q9P289)	0.0541	-0.26
SRRT_Q9BXP5_421_TCSLFMR (UniProt Q9BXP5)	0.00831	-0.0116
STX4_Q12846_141_CNSMQSEYR (UniProt Q12846)	-0.164	-0.155
STXBP2_Q15833_353_YSTHLHLADDCMK (UniProt Q15833)	-0.0444	-0.283
STIP1_P31948_339_KCQQAEK (UniProt P31948)	-0.0823	0.0155
SWAP70_Q9UH65_260_GDILLDENCCVESLPDK (UniProt Q9UH65)	0.173	0.0667
SVIL_O95425_76_YCTETSGVHGDSPYGSGTMDTHSLESK (UniProt O95425)	0.241	-0.194
SRRM2_Q9UQ35_956_SVSPCSNVESR (UniProt Q9UQ35)	-0.0202	0.258
SRRM2_Q9UQ35_785_SLSGSSPCPK (UniProt Q9UQ35)	-0.0328	-0.0247

Target	probe-labelled cysteine peptide fold change (10 µM)	probe-labelled cysteine peptide fold change (50 µM)
SRRT_Q9BXP5_412_DAAGLECK (UniProt Q9BXP5)	0.0907	-0.0142
SRSF1_Q07955_148_EAGDVCYADVYR (UniProt Q07955)	-0.201	-0.428
SUPT6H_Q7KZ85_1281_FSADLTCR (UniProt Q7KZ85)	0.0643	0.112
SUPT16H_Q9Y5B9_323_ICDVYNAVMDVVKK (UniProt Q9Y5B9)	-0.0967	-0.0776
STK17B_O94768_372_FRFDDSLPNPHELVSDLLC (UniProt O94768)	-0.162	-0.0804
SRRM2_Q9UQ35_1016_SPCPQEK (UniProt Q9UQ35)	-0.0714	-0.104
SRPRA_P08240_253_VWELGGCANK (UniProt P08240)	0.0867	-0.197
STIM1_Q13586_56_IDKPLCHSEDEK (UniProt Q13586)	-0.158	-0.555
SUZ12_Q15022_531_RTPITHILVCR (UniProt Q15022)	0.0364	-0.0184
SUPT5H_O00267_638_LVENGGMFVCK (UniProt O00267)	-0.0153	0.263
STRAP_Q9Y3F4_305_CVLPEEDSGELAKPK (UniProt Q9Y3F4)	-0.0387	0.0212
STRIP1_Q5VSL9_100_CFEEDFR (UniProt Q5VSL9)	-0.00784	-0.169
SUMO1_P63165_52_ESYCQR (UniProt P63165)	0.000976	0.048
SUCLA2_Q9P2R7_430_ILACDDLDEAAR (UniProt Q9P2R7)	0.12	0.0195
STIL_Q15468_353_CELSAESQNAETEFFSK (UniProt Q15468)	0.151	-0.109
STXBP3_O00186_354_QVVHLNLAEDCMNK (UniProt O00186)	-0.0145	-0.0622
STYX_Q8WUJ0_62_HGITHIICIR (UniProt Q8WUJ0)	0.00893	0.197
SSRP1_Q08945_207_ELQCLTPR (UniProt Q08945)	0.0671	0.0936
SRRT_Q9BXP5_490_LRECELSPGVNR (UniProt Q9BXP5)	-0.0498	0.266
STUB1_Q9UNE7_180_ERELEECQR (UniProt Q9UNE7)	-0.0845	0.0492
STRN3_Q13033_757_TCVQEITAHR (UniProt Q13033)	0.196	0.0473
ST3GAL1_Q11201_59_HRPCTCTHCIGQR (UniProt Q11201)	-0.00263	0.0223

Target	probe-labelled cysteine peptide fold change (10 µM)	probe-labelled cysteine peptide fold change (50 µM)
STXBP1_P61764_110_AAHVFFTDSCPDALFNELVK (UniProt P61764)	0.349	0.135
ST6GALNAC4_Q9H4F1_260_GRLDECQMYLAHEQAPR (UniProt Q9H4F1)	0.222	-0.154
SUCLA2_Q9P2R7_152+158_ICNQVLVCER (UniProt Q9P2R7)	0.067	0.15
SRPRB_Q9Y5M8_246_VEFLECSAK (UniProt Q9Y5M8)	0.0392	-0.0286
STAMBP_O95630_286_GVETCGILCGK (UniProt O95630)	0.115	0.13
STXBP2_Q15833_365_LCSVEQDLAMGSDAEGEK (UniProt Q15833)	0.0583	-0.14
STK11_Q15831_418_ACSASSK (UniProt Q15831)	-0.0334	-0.133
STUB1_Q9UNE7_244_EPCITPSGITYDR (UniProt Q9UNE7)	0.0775	-0.171
STAG1_Q8WVM7_636_HVESDVLEACSK (UniProt Q8WVM7)	0.014	0.0855
STK11IP_Q8N1F8_707+710_TESPAVCPNCGSDHVVLLAVSR (UniProt Q8N1F8)	0.00361	0.158
STIP1_P31948_26_ALSVGNIDDALQCYSEAIK (UniProt P31948)	-0.0575	-0.0376
SSB_P05455_245_FSGDLDDQTCREDLHILFSNHGEIK (UniProt P05455)	-0.0319	-0.181
SRRT_Q9BXP5_412_DAAGLECKPR (UniProt Q9BXP5)	0.0439	-0.0706
SSRP1_Q08945_340_ITVPGNFQGHSGAQCITCSYK (UniProt Q08945)	0.0436	0.0922
STRIP1_Q5VSL9_769_HRLNDDWAYGNDLDARPWDFQAEECALR (UniProt Q5VSL9)	-0.224	-0.145
STIP1_P31948_339_CQQAEK (UniProt P31948)	-0.0538	0.205
SUGT1_Q9Y2Z0_49_ALEQKPDDAQYYCQR (UniProt Q9Y2Z0)	0.0223	0.00988
SUPT5H_O00267_1012_SVTGGMCSVYLK (UniProt O00267)	-0.0187	0.0806
STRIP1_Q5VSL9_769_LNDDWAYGNDLDARPWDFQAEECALR (UniProt Q5VSL9)	0.119	-0.189
STRIP1_Q5VSL9_798_AHSNPDFLPVDNCLQSVLGQR (UniProt Q5VSL9)	0.00641	-0.153
